In doi:10.1101/2021.10.01.462752:
No constants are given. Whether binding was seen depends on the method and setting. In cells and extracts the contact can be indirect. Some entries that bind do so weakly or less than the wild type. Sequences can lack the tags named with a protein.

Chains of the proteins cited; added tags and fusions are not shown.
UniProt Q9NQC1: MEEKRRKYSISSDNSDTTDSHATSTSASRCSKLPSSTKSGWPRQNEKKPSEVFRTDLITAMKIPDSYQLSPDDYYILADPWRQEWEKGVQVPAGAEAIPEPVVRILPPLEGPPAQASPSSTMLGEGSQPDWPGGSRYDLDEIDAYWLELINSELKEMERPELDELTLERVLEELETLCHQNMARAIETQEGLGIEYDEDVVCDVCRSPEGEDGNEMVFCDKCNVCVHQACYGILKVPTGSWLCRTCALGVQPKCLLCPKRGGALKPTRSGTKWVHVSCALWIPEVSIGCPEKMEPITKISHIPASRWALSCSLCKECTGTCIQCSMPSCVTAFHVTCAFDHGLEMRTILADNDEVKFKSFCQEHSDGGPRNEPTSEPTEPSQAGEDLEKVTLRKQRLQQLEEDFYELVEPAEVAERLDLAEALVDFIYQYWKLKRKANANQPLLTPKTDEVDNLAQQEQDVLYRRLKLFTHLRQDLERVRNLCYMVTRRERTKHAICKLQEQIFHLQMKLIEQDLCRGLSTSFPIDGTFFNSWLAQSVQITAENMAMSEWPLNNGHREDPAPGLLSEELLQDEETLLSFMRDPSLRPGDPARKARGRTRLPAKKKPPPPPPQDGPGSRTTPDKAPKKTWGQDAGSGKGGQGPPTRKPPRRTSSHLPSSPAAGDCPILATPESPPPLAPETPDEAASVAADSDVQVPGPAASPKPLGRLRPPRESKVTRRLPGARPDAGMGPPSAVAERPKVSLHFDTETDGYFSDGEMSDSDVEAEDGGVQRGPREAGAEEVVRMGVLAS

Legend:
[1] = biological target: FLAG-tagged JADE2 (human) (UniProt Q9NQC1); test: co-IP
[2] = biological target: T1, FLAG-tagged JADE3 (human) (UniProt Q92613); test: co-IP
T1 sequence: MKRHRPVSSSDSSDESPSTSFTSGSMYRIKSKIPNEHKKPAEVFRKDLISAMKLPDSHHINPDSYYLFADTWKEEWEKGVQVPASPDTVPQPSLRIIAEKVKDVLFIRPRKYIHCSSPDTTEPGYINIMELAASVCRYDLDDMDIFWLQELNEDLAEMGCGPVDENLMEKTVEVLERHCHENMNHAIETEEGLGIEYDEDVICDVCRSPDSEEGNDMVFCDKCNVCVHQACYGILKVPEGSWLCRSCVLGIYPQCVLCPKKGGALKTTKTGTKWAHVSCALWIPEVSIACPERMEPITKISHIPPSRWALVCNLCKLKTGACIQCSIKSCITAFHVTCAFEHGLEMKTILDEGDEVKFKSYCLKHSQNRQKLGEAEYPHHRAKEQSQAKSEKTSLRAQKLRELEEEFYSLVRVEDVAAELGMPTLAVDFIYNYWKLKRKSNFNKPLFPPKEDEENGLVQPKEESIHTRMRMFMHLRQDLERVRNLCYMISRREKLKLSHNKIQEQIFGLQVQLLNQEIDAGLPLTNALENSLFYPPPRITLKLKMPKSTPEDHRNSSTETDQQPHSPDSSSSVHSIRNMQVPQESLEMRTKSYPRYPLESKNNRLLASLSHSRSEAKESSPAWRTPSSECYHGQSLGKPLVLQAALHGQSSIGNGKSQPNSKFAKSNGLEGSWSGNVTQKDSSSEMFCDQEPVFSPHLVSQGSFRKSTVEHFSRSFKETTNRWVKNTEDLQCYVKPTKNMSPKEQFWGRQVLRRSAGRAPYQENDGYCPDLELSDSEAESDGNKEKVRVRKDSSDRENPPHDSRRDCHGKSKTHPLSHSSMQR

Row | Molecule | binding [1] | binding [2]
1 | V5-tagged JADE2 (from UniProt Q9NQC1 1-790) | binds | binds
2 | V5-tagged NPHP4 (protein, UniProt O75161 1-1426) MNDWHRIFTQNVLVPPHPQRARQPWKESTAFQCVLKWLDGPVIRQGVLEVLSEVECHLRVSFFDVTYRHFFGRTWKTTVKPTKRPPSRIVFNEPLYFHTSLNHPHIVAVVEVVAEGKKRDGSLQTLSCGFGILRIFSNQPDSPISASQDKRLRLYHGTPRALLHPLLQDPAEQNRHMTLIENCSLQYTLKPHPALEPAFHLLPENLLVSGLQQIPGLLPAHGESGDALRKPRLQKPITGHLDDLFFTLYPSLEKFEEELLELHVQDHFQEGCGPLDGGALEILERRLRVGVHNGLGFVQRPQVVVLVPEMDVALTRSASFSRKVVSSSKTSSGSQALVLRSRLRLPEMVGHPAFAVIFQLEYVFSSPAGVDGNAASVTSLSNLACMHMVRWAVWNPLLEADSGRVTLPLQGGIQPNPSHCLVYKVPSASMSSEEVKQVESGTLRFQFSLGSEEHLDAPTEPVSGPKVERRPSRKPPTSPSSPPAPVPRVLAAPQNSPVGPGLSISQLAASPRSPTQHCLARPTSQLPHGSQASPAQAQEFPLEAGISHLEADLSQTSLVLETSIAEQLQELPFTPLHAPIVVGTQTRSSAGQPSRASMVLLQSSGFPEILDANKQPAEAVSATEPVTFNPQKEESDCLQSNEMVLQFLAFSRVAQDCRGTSWPKTVYFTFQFYRFPPATTPRLQLVQLDEAGQPSSGALTHILVPVSRDGTFDAGSPGFQLRYMVGPGFLKPGERRCFARYLAVQTLQIDVWDGDSLLLIGSAAVQMKHLLRQGRPAVQASHELEVVATEYEQDNMVVSGDMLGFGRVKPIGVHSVVKGRLHLTLANVGHPCEQKVRGCSTLPPSRSRVISNDGASRFSGGSLLTTGSSRRKHVVQAQKLADVDSELAAMLLTHARQGKGPQDVSRESDATRRRKLERMRSVRLQEAGGDLGRRGTSVLAQQSVRTQHLRDLQVIAAYRERTKAESIASLLSLAITTEHTLHATLGVAEFFEFVLKNPHNTQHTVTVEIDNPELSVIVDSQEWRDFKGAAGLHTPVEEDMFHLRGSLAPQLYLRPHETAHVPFKFQSFSAGQLAMVQASPGLSNEKGMDAVSPWKSSAVPTKHAKVLFRASGGKPIAVLCLTVELQPHVVDQVFRFYHPELSFLKKAIRLPPWHTFPGAPVGMLGEDPPVHVRCSDPNVICETQNVGPGEPRDIFLKVASGPSPEIKDFFVIIYSDRWLATPTQTWQVYLHSLQRVDVSCVAGQLTRLSLVLRGTQTVRKVRAFTSHPQELKTDPKGVFVLPPRGVQDLHVGVRPLRAGSRFVHLNLVDVDCHQLVASWLVCLCCRQPLISKAFEIMLAAGEGKGVNKRITYTNPYPSRRTFHLHSDHPELLRFREDSFQVGGGETYTIGLQFAPSQRVGEEEILIYINDHEDKNEEAFCVKVIYQ | binds | binds
